Data source: PubChem BioAssay AID743121 (NCATS, 2013)

- Screen: 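Genes whose silencing strengthens cell killing by camptothecin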 (primary screen)
- Cell system: MDA-MB-231 cells, a human breast cancer line
- Reagent: single siRNA against human genes, 20 nM siRNA (0.8 pmol per well)
- Duration: 120 h (drug added 48 h after transfection, read 72 h later)
- Treatment: camptothecin 20 nM (about EC30) for 72 h; vehicle 0.1% DMSO in parallel plates
- Detection: 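Cell viability by ATP luminescence (CellTiter-Glo) as % of non-targeting siRNA wells, and the log2 ratio of viability without drug over viability with camptothecin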
- Reading the numbers: log2 vehicle/camptothecin viability: higher = stronger sensitisation to camptothecin; viability with camptothecin: higher = more viable cells
- Call rule: 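Active genes have an RSA gene-level p-value below 0.001, computed from the ratios of their separate siRNAs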
This is a random part of about 26,000 reagents tested. 167 of all reagents (0.63%) were called active. 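Calls are per gene from RSA p-values that are not deposited; an individual active-marked siRNA can sensitise only weakly.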 Unmarked entries are inactive. Reagents against one gene are numbered here. Not all columns of the deposit are shown.

gene | reagent | log2 vehicle/camptothecin viability | viability with camptothecin (% of control)
GALR1 | 1 | -0.285 | 97
GALR1 | 2 | -0.333 | 37.2
GALR1 | 3 | -0.498 | 90.2
GALR1 | 4 | -0.391 | 65.1
GALR1 | 5 | -0.585 | 65.7
MTNR1A | 1 | 0.86 | 26.9
MTNR1A | 2 | -0.347 | 97.1
MTNR1A | 3 | -0.376 | 92.7
MTNR1A | 4 | 0.122 | 55.1
RTN4RL1 | 1 | -0.292 | 75.7
RTN4RL1 | 2 | -0.282 | 63.5
RTN4RL1 | 3 | -0.376 | 107
RTN4RL1 | 4 | 0.062 | 73
GP1BB | 1 | 1.27 | 15.1
GP1BB | 2 | -0.0519 | 75.3
GP1BB | 3 | -0.33 | 98.3
MED6 | 1 | -0.354 | 119
MED6 | 2 | 0.0261 | 46
MED6 | 3 | -0.0693 | 47.4
MED6 | 4 | -0.274 | 82.3
VBP1 | 1 | -0.0306 | 103
VBP1 | 2 | -0.14 | 57.2
VBP1 | 3 | -0.342 | 93
VBP1 | 4 | -0.493 | 96.8
HECTD3 | 1 | -0.191 | 74.3
HECTD3 | 2 | -0.195 | 94.7
HECTD3 | 3 | -0.165 | 71.7
PHB1 | 1 | -0.209 | 55.3
PHB1 | 2 | 0.569 | 25.2
PHB1 | 3 | -0.374 | 56
PHB1 | 4 | -0.0386 | 94.7
UHRF2 | 1 | -0.134 | 17.5
UHRF2 | 2 | -0.515 | 113
UHRF2 | 3 | -0.119 | 83.6
CD19 | 1 | 0.00919 | 92.6
CD19 | 2 | 0.00371 | 49.2
CD19 | 3 | -0.712 | 80
CD93 | 1 | 0.683 | 3.29
CD93 | 2 | -0.11 | 114
CD93 | 3 | -0.377 | 21.1
CD93 | 4 | -0.177 | 53.9
EYA4 | 1 | -0.353 | 90.7
EYA4 | 2 | -0.027 | 82.9
EYA4 | 3 | -0.403 | 82.4
EYA4 | 4 | -0.553 | 121
COL4A4 | 1 | -0.241 | 78.8
COL4A4 | 2 | -0.364 | 44.9
COL4A4 | 3 | 0.455 | 57
COL4A4 | 4 | -0.303 | 79.5
GRIN2D | 1 | 0.266 | 52.4
GRIN2D | 2 | 0.126 | 83.5
GRIN2D | 3 | -0.176 | 96.2
GRIN2D | 4 | -0.626 | 44.6
MMP8 | 1 | -0.127 | 57.2
MMP8 | 2 | -0.135 | 73.3
MMP8 | 3 | -0.735 | 125
MMP8 | 4 | 0.359 | 73.7
IL36B | 1 | -0.234 | 105
IL36B | 2 | -0.182 | 60.9
IL36B | 3 | -0.267 | 114
RRM1 | 1 | -0.399 | 67.4
RRM1 | 2 | -0.594 | 12.5
RRM1 | 3 | 0.0815 | 4.59
RRM1 | 4 | -0.0677 | 9.59
OR52A1 | 1 | -0.0928 | 92.8
OR52A1 | 2 | -0.0137 | 114
OR52A1 | 3 | 0.276 | 48.7
OR52A1 | 4 | -0.358 | 52.6

Limited to “viability with camptothecin (% of control)” (8 entries from above):
RRM1 #1 = 67.4
RRM1 #2 = 12.5
RRM1 #3 = 4.59
RRM1 #4 = 9.59
OR52A1 #1 = 92.8
OR52A1 #2 = 114
OR52A1 #3 = 48.7
OR52A1 #4 = 52.6
